Values quoted from earlier work in US20230144023A1, “USE OF BUTYLPHTHALIDE AND DERIVATIVE THEREOF” (CSPC NBP PHARMACEUTICAL CO., LTD, priority 2020, published 2023).
For part of these data: For at least one compound, name, drawing or mass did not settle the structure. Some entries share one result that the patent states for a list of compounds.

What was measured:
[1] = cumulative dose of 371-600 mg/m^2; cited from earlier work
[2] = system: chemotherapy-induced peripheral neuropathy; details: prevention of CIPN; guideline rating; cited from earlier work

Structure (SMILES)	patients with moderate or severe (grade 2-4) sensory neuropathy [1]	Efficacy [2]
CC(=O)O[C@@]12CO[C@@H]1C[C@H](O)[C@@]1(C)C(=O)[C@H](O)C3=C(C)[C@@H](OC(=O)[C@H](O)[C@@H](NC(=O)OC(C)(C)C)c4ccccc4)C[C@@](O)([C@@H](OC(=O)c4ccccc4)[C@H]21)C3(C)C [docetaxel]	20-35%	
CCN(CC)C(=S)S [Diethyldithio-carbamate]		No evidence
COCCOC(=O)C1=C(C)NC(C)=C(C(=O)OC(C)C)C1c1cccc([N+](=O)[O-])c1 (stereo not drawn) [Nimodipine]		No evidence
